Measurements as given in US4507239A, “Penicillin derivatives and process for preparation” (Taiho Pharmaceutical Company, Limited, priority 1982, dated 1985).
At least one read-out could not be matched to a standard name with certainty.

Target: penicillinase (β-lactamase) from Bacillus SP.
Assay: β-lactamase inhibitory activity (pH Stat method)
Format: biochemical
Conditions: read-out: 50%-β-lactamase inhibitory concentration (IC30)

For `CC1(CN=[N+]=[N-])C(C(=O)O)N2C(=O)CC2S1(=O)=O` (stereo not drawn) [Compound of Example 4, sodium 2β-azidomethyl-2α-methylpenam-3α-carboxylate-1,1-dioxide], the IC50 was 4 µM.
